Experimental data taken from US20130004416A1.
These are yes or no findings as the source states them, for the method shown. Some binding calls cover weakened binding; strength is not graded here.

Chains of the proteins cited; added tags and fusions are not shown.
UniProt P11836: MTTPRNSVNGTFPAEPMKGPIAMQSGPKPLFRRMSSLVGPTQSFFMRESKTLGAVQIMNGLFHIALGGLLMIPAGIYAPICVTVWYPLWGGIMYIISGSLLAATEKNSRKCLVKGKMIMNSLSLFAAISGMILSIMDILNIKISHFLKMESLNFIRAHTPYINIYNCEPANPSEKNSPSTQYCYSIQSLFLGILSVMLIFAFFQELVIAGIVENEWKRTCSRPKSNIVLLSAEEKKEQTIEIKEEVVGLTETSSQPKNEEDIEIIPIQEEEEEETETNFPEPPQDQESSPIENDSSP

Target: human CD20 on Raji B cells (human) (UniProt P11836)
Assay: staining of Raji B cells, FITC-labeled secondary antibody

B1: murine anti-human-CD20 mAb clone 5F1 (antibody, V domains shown)
VH: QVQLRQPGAELVKPGASVKMSCKASGYTFTSYNMHWVKQTPGQGLEWIGAIYPGNGDTSYNQKFKGKATLTADKSSSTAYMQLSSLTSEDSAVYYCARSHYGSNYVDYFDYWGQGTTLTVSS
VL: QIVLSQSPAILSASPGEKVTMTCRASSSLSFMHWYQQKPGSSPKPWIYATSNLASGVPARFSGSGSGTSYSLTISRVEAEDAATYFCHQWSSNPLTFGAGTKLELKR
binding: binds
